We go through 1 substance from patent US7144988B2, “Method of structure-based drug design to create or improve modulators of IL-1 activity which bind to the interleukin-1 type 1 receptor” (Array Biopharma, Inc., priority 2002, dated 2006).

By UniProt entry, the sequences of proteins in these tests, tags left out. Where a name states a change or a piece, a line headed by the entry shows the natural chain unless it says otherwise. Residues count along the entry.
UniProt P18510, residues 26-177: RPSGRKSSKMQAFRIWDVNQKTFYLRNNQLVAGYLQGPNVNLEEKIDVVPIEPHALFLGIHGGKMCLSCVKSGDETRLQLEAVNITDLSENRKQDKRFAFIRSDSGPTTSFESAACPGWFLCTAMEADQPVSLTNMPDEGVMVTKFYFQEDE
UniProt P14778: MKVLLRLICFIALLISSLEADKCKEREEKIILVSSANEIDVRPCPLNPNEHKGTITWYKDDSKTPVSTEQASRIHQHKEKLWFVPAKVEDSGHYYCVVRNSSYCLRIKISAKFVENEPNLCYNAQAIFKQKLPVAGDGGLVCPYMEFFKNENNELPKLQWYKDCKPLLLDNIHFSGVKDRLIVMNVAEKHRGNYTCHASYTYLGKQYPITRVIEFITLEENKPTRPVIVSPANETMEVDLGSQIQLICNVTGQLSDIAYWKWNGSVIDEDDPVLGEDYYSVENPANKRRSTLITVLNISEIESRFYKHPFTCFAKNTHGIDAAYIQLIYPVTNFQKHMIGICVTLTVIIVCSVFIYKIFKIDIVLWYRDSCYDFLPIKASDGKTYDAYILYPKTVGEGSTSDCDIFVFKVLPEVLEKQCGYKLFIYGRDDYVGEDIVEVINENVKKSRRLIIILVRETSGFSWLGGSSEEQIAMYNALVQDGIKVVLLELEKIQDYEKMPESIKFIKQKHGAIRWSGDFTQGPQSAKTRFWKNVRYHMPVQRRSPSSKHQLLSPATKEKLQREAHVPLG

This assay addresses interleukin-1 receptor antagonist (IL-1ra) (UniProt P18510). Description: affinity chromatography: culture supernatant incubated with IL-1ra covalently bound to Affigel-15 resin, washed with PBS plus 0.5 M NaCl, eluted at pH 2.8.

No constants are given. Whether binding was seen depends on the method and setting. Some entries that bind do so weakly or less than the wild type.

“modified IL-1 type 1 receptor (IL1R2D) (from UniProt P14778 18-222)”: the binding result is on record as “binds”.
